Results are given in words; binding and its absence hold for the method and conditions named. In cells and extracts the contact can be indirect. Some results given as binding are weak or reduced against the parent protein; the word gives no strength.
Key:
[1] = target: T1, full-length mouse RasGRF1 (mouse) (UniProt P27671); test: co-immunoprecipitation of in vitro translated proteins with AU1 antibody
T1 sequence (looked up): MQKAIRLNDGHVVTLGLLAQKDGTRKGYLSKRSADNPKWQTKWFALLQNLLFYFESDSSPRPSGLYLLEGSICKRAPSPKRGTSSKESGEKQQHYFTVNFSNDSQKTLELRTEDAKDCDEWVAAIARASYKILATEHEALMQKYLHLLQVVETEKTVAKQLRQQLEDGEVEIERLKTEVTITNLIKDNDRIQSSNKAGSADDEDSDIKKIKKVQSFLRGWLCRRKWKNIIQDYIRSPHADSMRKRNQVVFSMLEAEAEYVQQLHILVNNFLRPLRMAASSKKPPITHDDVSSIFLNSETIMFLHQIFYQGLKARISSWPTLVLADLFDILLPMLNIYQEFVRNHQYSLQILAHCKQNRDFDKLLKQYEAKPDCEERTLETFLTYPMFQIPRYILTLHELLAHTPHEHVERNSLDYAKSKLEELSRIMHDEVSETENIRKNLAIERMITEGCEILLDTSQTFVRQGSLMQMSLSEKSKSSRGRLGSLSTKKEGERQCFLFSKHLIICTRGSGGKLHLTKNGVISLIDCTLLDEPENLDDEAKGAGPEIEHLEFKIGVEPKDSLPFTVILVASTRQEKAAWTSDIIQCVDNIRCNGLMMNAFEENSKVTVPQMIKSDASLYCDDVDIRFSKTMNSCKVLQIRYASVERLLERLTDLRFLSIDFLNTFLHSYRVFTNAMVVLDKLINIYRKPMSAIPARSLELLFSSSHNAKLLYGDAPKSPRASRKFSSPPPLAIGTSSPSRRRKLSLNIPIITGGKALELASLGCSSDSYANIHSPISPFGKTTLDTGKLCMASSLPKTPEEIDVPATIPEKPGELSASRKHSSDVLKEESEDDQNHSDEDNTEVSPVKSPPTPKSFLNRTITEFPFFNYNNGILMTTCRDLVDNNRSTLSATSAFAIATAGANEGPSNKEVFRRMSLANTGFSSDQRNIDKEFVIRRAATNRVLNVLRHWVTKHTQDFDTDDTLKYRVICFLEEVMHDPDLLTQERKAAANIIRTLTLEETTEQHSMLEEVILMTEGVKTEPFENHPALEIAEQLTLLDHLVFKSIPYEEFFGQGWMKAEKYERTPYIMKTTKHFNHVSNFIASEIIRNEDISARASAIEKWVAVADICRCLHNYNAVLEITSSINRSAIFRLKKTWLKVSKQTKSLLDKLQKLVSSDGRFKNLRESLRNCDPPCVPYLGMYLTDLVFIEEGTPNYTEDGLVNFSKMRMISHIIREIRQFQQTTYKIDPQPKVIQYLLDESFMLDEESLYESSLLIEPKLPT

By UniProt entry, the sequences of proteins in these tests, tags left out. Where a name states a change or a piece, a line headed by the entry shows the natural chain unless it says otherwise.
UniProt Q00960: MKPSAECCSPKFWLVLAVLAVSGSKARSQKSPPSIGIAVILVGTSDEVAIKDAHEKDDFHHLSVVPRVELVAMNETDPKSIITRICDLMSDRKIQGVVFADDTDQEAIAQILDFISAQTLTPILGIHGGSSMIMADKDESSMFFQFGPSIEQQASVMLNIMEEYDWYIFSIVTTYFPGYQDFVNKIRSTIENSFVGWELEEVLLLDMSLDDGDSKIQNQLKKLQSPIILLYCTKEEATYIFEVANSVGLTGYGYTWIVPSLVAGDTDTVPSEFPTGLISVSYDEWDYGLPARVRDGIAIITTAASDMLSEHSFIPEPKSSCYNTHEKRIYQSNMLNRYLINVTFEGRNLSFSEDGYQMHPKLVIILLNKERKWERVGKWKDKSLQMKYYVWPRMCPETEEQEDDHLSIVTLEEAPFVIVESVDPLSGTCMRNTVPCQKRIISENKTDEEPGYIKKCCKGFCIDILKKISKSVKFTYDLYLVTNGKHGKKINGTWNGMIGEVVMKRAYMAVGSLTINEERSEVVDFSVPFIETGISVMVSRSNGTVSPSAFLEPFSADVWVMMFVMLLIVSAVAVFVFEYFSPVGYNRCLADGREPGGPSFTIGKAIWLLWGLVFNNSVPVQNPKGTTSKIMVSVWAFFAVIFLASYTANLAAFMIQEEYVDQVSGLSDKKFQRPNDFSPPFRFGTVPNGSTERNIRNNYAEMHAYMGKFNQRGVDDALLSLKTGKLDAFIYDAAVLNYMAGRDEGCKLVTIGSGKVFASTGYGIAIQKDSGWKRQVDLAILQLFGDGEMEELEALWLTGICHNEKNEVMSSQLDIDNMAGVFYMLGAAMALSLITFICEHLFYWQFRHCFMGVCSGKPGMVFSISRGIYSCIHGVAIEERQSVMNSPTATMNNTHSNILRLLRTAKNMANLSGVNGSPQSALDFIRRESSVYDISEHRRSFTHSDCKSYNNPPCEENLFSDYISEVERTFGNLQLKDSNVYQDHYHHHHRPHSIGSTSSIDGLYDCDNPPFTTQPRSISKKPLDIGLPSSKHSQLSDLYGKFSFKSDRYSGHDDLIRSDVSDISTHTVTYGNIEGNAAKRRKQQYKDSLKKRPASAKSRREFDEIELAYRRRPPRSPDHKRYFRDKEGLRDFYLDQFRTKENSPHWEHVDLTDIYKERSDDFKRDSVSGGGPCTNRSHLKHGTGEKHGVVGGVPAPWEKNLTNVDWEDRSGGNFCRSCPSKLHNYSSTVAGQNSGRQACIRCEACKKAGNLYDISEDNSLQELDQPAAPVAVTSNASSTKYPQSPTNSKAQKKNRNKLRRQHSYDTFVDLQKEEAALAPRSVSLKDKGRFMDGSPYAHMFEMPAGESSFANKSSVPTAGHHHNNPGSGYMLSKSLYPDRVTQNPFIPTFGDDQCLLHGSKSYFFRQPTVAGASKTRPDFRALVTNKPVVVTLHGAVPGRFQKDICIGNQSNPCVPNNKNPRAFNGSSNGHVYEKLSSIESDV

[2] = target: T1, full-length mouse RasGRF1 (mouse); test: pull-down on Co2+ beads of 35S-labelled in vitro translated RasGRF1
[3] = target: T1, full-length mouse RasGRF1 (mouse); test: NusA pull-down (FIG. 1A)

binding [1]	binding [2]	binding [3]	Substance
binds			AU1-tagged NR2B fragment, amino acids 886-1310 (from UniProt Q00960 886-1310)
binds			AU1-tagged NR2B fragment, amino acids 886-1219 (from UniProt Q00960 886-1219)
	binds	binds	6His-NusA-NR2B (886-1310) fusion protein (from UniProt Q00960 886-1310)

Source: patent US20060035283A1
